These are yes or no findings as the source states them, for the method shown. Binding seen in cells or lysates may run through a third protein. Some results given as binding are weak or reduced against the parent protein; the word gives no strength.

Amino acid sequences for entries named in this document (tags omitted). A change or cut given only in a name is not applied to a line headed by its entry. Residues count along the entry.
UniProt P63010: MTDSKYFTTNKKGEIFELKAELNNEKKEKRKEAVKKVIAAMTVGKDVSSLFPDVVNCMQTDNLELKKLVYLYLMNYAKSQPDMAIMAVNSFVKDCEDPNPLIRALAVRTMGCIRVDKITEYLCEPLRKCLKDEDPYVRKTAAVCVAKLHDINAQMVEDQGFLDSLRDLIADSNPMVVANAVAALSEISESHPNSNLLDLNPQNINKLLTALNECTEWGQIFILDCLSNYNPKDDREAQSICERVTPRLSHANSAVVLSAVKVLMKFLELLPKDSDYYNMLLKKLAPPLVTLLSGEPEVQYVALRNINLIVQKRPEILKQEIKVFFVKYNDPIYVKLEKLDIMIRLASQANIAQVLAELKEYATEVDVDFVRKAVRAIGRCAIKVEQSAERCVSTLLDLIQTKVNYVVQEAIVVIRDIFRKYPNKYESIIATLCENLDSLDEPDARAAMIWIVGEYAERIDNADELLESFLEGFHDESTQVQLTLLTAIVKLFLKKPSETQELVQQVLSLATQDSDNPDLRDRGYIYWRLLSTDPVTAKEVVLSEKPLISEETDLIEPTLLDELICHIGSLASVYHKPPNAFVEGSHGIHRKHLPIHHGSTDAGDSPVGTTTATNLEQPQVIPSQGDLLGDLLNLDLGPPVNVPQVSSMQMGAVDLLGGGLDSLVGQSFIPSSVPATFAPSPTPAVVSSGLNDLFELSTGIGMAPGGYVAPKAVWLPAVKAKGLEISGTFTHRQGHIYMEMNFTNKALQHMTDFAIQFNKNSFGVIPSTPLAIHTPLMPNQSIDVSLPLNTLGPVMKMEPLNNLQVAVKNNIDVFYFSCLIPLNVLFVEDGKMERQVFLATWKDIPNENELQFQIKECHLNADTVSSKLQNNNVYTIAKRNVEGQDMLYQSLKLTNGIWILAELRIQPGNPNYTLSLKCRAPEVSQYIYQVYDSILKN
GST-β2-adaptin(592–937): residues 592-937 of P63010
UniProt P49407: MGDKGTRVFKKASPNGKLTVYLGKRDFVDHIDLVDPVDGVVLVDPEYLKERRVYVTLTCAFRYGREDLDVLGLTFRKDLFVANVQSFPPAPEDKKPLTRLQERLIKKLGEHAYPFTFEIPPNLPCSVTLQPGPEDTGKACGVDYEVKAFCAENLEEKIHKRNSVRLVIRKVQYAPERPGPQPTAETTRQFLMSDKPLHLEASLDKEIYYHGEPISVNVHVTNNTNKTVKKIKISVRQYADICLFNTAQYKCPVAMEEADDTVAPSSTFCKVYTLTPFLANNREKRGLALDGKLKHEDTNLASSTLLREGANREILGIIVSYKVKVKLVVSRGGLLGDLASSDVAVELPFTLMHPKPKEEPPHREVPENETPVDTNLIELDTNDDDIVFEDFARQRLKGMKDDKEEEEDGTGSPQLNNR
UniProt P32121: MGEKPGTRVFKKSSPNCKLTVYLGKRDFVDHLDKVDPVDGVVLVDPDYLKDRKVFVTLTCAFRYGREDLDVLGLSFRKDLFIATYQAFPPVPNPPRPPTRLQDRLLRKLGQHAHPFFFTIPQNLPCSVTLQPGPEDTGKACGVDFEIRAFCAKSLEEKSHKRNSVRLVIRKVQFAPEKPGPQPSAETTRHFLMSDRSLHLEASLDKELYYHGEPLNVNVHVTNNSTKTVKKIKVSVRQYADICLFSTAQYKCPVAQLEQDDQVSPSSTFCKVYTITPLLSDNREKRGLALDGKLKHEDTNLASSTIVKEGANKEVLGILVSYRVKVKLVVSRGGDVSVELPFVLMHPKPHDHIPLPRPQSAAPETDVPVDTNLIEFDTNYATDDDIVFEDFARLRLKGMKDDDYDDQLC

Data on 4 substances can be found in publication PMC5399295 (Nature Communications, 2017).

Experiment [1] concerns the target GST-β2-adaptin(592–937) (human) (UniProt P63010). The experiment is described as follows: pull-down; 7 μg GST-β2-adaptin(592–937) on glutathione-sepharose beads, pre-incubated with DMSO or Barbadin, then lysate of HEK293T cells transfected with Flag-β-arrestin1, 2 h at 4 °C; blots with anti-Flag and anti-clathrin heavy chain; only the target purified.
The target of experiment [2] is endogenous β2-adaptin (AP2 complexes) (human (endogenous in HEK293SL)) (UniProt P63010). The experiment can be described thus: co-IP; HEK293SL cells expressing V2R and Flag-β-arrestin2; DMSO or Barbadin (50 μM) 20 min, AVP (1 μM) 2.5 or 5 min; cross-linked with DSP (2 mM); RIPA lysate; IP with anti-AP1/2 antibody, blots with anti-Flag, anti-epsin, anti-adaptin.
A further experiment concerns the target β2-adaptin-YFP (human) (UniProt P63010). The experiment can be described thus: FRET or BRET; living HEK293T cells stably expressing β2-adaptin-YFP, transfected with β-arrestin1-RlucII or β-arrestin2-RlucII and V2R, β2AR or AT1R; agonist (AVP 100 nM, ISO 10 μM or AngII 100 nM) at room temperature; pre-incubation with DMSO or compounds (Barbadin 100 μM); Tyrode's buffer.

Consider “Flag-β-arrestin1 (from UniProt P49407 1-418)”, for which the binding entry in experiment [1] is listed as “binds”.

For the substance “Flag-β-arrestin2 (from UniProt P32121 1-409)”, the binding result in experiment [2] was “binds”.

Take “β-arrestin2-RlucII (from UniProt P32121 1-409)”: the binding entry in the experiment with β2-adaptin-YFP (human) is on record as “binds”.

Take “β-arrestin1-RlucII (from UniProt P49407 1-418)”: the binding result with β2-adaptin-YFP (human) is recorded as “binds”.
